Among the data in patent US20210062219A1 are binding values, retold here.

By UniProt entry, the sequences of proteins in these tests, tags left out.
UniProt Q8TAG9: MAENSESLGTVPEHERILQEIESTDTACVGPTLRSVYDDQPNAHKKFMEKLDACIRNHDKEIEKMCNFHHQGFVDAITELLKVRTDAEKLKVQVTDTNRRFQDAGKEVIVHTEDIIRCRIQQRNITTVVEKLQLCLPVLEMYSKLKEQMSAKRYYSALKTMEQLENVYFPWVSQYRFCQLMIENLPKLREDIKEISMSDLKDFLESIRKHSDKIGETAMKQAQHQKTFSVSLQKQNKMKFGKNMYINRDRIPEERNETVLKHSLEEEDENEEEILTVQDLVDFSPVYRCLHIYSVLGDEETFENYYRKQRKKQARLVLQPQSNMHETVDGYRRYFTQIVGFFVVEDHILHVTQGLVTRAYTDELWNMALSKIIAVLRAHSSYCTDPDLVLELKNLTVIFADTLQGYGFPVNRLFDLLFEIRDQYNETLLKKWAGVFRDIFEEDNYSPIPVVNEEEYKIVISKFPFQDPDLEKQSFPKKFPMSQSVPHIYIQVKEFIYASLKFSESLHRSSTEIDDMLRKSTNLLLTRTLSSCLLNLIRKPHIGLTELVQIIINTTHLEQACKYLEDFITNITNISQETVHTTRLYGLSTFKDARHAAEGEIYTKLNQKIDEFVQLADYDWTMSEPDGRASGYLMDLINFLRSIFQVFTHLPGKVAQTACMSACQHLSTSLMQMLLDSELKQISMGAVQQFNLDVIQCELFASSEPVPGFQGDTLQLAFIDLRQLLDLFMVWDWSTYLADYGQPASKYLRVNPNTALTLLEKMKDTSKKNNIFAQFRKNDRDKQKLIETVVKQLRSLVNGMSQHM
UniProt O00471: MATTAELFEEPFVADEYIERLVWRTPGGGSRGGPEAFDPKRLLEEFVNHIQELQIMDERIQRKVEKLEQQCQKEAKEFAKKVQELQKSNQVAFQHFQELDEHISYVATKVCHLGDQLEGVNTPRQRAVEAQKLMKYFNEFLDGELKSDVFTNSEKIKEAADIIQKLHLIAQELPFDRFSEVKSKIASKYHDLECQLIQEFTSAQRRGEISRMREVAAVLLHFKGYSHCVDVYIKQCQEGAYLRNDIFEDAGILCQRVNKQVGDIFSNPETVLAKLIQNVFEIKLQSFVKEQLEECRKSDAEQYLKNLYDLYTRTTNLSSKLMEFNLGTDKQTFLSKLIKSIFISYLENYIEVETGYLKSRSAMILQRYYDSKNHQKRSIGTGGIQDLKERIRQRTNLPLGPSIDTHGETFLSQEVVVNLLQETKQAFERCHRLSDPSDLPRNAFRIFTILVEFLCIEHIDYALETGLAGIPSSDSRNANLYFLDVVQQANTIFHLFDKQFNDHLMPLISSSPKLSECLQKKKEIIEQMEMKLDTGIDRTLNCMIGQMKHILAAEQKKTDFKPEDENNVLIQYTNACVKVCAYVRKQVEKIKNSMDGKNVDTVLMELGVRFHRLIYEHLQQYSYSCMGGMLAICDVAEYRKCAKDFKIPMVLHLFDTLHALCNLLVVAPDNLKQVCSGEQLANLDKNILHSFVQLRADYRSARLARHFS

The assay has as its target EXOC6 (94 kDa), subunit of the human exocyst complex (human) (UniProt Q8TAG9). The assay can be described thus: Strep affinity co-purification through Twin-Strep-tagged EXOC5 from co-infected Sf9 cells, SDS-PAGE.

Results are given in words; binding and its absence hold for the method and conditions named. In cells and extracts the contact can be indirect. Some binding calls cover weakened binding; strength is not graded here.

For the substance “EXOC5 with a Twin-strep tag (expressed from recombinant plasmid 4V2-E1S5 / final transfer plasmid E1S547 / baculovirus BV-E1S547) (from UniProt O00471 1-708)”, the binding entry was “binds”.
